Measured values from doi:10.1101/2020.11.05.369959.
These are yes or no findings as the source states them, for the method shown. Binding seen in cells or lysates may run through a third protein. Some binding calls cover weakened binding; strength is not graded here.

Chains of the proteins cited; added tags and fusions are not shown.
UniProt Q9C0K0: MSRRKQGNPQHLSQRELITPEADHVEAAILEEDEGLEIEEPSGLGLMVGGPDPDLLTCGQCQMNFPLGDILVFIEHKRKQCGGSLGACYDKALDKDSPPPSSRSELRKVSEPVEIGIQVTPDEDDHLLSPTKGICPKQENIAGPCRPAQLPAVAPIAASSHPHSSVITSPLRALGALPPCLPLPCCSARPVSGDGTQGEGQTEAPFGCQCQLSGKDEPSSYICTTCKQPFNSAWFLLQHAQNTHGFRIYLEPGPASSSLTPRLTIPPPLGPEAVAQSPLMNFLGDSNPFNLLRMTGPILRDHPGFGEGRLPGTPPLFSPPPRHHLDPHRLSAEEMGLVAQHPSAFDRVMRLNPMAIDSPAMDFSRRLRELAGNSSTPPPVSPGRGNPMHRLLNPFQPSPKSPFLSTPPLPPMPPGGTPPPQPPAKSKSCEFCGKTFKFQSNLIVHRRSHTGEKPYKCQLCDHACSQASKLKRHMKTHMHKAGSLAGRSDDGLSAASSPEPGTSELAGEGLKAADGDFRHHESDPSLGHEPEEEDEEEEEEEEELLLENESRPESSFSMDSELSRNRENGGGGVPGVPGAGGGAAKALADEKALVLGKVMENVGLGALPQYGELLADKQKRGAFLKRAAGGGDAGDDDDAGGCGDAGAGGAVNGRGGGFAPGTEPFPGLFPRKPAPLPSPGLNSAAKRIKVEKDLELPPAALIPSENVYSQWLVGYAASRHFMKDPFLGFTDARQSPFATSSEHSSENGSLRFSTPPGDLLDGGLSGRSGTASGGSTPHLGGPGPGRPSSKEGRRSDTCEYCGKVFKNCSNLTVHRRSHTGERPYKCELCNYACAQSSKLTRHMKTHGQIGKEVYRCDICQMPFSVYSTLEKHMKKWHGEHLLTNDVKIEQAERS
UniProt P35637: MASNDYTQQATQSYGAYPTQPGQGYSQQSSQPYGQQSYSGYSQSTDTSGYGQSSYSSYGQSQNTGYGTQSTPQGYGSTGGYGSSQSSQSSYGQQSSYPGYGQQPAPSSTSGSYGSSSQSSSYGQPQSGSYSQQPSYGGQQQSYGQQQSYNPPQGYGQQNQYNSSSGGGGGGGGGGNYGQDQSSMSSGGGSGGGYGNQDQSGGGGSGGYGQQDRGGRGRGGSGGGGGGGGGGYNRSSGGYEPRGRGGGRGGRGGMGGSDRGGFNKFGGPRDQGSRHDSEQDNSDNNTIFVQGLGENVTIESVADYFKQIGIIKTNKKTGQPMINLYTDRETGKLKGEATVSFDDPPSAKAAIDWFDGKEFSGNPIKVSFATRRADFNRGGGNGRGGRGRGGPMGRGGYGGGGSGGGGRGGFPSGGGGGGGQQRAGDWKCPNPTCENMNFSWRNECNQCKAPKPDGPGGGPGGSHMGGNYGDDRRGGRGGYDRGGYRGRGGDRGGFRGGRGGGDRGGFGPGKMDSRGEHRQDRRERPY
UniProt Q16637: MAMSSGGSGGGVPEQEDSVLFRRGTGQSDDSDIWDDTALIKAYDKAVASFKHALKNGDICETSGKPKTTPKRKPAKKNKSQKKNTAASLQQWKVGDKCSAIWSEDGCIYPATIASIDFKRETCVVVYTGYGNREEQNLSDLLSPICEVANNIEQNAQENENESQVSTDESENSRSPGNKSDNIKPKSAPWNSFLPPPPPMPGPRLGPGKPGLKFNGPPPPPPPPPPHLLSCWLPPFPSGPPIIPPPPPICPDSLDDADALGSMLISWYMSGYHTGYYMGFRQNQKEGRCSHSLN

Molecular target: Flag-BCL11b (B-cell lymphoma/leukemia 11B) (UniProt Q9C0K0)
Experiment: co-IP

binding	Substance
binds	FUS (from UniProt P35637 1-526)
binds	SMN1 (from UniProt Q16637 1-294)
